According to article PMC5547076:
No constants are given. Whether binding was seen depends on the method and setting. Some entries that bind do so weakly or less than the wild type.

Protein sequences, listed by entry. Tags and fused reporters are not part of them. Lines headed by an entry give the natural chain unless they say otherwise; changes in a name come on top. Chains listed by the source or under a name are the forms on record and can include a tag or linker. Residues count along the entry.
GST-EZH2(501–751) (Q15910, residues 496-746): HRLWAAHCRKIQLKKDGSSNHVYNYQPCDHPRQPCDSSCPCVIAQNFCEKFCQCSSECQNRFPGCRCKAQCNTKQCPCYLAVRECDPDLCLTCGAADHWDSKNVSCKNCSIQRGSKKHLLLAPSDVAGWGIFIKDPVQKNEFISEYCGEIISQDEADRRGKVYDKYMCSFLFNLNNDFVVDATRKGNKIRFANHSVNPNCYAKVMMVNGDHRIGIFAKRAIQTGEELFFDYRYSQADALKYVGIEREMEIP
GST-EZH2 (Q15910, form named): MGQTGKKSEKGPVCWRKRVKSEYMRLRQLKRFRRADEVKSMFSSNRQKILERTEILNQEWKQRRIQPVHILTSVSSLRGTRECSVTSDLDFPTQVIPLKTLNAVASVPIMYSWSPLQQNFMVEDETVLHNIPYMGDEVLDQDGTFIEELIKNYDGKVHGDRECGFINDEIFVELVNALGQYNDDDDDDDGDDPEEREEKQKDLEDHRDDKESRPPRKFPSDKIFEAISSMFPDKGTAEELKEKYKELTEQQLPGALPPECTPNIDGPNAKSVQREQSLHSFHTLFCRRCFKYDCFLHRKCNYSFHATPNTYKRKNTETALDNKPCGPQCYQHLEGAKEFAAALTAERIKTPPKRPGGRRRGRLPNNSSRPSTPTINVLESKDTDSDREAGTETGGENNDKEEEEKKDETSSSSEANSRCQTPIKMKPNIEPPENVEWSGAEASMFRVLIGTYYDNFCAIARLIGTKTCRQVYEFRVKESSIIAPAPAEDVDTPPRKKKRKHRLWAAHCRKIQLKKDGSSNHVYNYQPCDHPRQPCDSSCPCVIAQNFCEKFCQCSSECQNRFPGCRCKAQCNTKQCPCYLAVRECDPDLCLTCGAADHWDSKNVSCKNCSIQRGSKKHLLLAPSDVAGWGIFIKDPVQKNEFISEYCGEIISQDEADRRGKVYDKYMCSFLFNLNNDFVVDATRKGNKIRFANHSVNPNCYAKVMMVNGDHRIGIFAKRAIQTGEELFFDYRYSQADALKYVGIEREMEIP
GST-EZH2(1–500) (Q15910, form named): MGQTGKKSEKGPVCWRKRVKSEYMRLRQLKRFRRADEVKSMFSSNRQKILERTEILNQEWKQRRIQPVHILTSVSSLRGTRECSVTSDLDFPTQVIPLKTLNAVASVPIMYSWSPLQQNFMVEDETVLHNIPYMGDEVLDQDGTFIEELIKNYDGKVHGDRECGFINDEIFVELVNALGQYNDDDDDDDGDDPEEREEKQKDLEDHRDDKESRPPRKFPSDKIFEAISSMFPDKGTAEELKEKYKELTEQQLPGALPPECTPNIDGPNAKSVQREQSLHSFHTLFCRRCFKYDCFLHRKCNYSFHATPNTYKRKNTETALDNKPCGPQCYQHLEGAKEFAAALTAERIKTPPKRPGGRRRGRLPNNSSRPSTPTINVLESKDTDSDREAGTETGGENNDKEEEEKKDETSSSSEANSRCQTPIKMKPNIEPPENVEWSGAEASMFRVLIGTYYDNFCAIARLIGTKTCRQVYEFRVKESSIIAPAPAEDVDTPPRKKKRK
UniProt P15941, residues 1182-1255: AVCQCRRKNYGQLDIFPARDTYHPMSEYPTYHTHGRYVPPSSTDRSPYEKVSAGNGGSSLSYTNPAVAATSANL

Key:
Assay in all cases: pull-down; GST fusion proteins bound to glutathione beads incubated with purified MUC1-CD proteins, washed; adsorbates immunoblotted with anti-MUC1-C cytoplasmic domain antibodies CD1 or CT2; both purified
GST-EZH2 (human) = GST-EZH2 (human) (UniProt Q15910)
GST-EZH2(1–500) (human) = GST-EZH2(1–500) (human) (UniProt Q15910)
[1] = biological target: GST-EZH2(501–751) (human) (UniProt Q15910)

binding (GST-EZH2 (human)): binds
binding (GST-EZH2(1–500) (human)): no binding
binding [1]: binds
Substance: MUC1-C cytoplasmic domain (from UniProt P15941 1182-1255) (domain or fragment)
